# Assay results as given in article PMC5520895.
# Sequences of proteins named here, by UniProt entry; tags and fusion partners are left off.
# UniProt Q3TKT4: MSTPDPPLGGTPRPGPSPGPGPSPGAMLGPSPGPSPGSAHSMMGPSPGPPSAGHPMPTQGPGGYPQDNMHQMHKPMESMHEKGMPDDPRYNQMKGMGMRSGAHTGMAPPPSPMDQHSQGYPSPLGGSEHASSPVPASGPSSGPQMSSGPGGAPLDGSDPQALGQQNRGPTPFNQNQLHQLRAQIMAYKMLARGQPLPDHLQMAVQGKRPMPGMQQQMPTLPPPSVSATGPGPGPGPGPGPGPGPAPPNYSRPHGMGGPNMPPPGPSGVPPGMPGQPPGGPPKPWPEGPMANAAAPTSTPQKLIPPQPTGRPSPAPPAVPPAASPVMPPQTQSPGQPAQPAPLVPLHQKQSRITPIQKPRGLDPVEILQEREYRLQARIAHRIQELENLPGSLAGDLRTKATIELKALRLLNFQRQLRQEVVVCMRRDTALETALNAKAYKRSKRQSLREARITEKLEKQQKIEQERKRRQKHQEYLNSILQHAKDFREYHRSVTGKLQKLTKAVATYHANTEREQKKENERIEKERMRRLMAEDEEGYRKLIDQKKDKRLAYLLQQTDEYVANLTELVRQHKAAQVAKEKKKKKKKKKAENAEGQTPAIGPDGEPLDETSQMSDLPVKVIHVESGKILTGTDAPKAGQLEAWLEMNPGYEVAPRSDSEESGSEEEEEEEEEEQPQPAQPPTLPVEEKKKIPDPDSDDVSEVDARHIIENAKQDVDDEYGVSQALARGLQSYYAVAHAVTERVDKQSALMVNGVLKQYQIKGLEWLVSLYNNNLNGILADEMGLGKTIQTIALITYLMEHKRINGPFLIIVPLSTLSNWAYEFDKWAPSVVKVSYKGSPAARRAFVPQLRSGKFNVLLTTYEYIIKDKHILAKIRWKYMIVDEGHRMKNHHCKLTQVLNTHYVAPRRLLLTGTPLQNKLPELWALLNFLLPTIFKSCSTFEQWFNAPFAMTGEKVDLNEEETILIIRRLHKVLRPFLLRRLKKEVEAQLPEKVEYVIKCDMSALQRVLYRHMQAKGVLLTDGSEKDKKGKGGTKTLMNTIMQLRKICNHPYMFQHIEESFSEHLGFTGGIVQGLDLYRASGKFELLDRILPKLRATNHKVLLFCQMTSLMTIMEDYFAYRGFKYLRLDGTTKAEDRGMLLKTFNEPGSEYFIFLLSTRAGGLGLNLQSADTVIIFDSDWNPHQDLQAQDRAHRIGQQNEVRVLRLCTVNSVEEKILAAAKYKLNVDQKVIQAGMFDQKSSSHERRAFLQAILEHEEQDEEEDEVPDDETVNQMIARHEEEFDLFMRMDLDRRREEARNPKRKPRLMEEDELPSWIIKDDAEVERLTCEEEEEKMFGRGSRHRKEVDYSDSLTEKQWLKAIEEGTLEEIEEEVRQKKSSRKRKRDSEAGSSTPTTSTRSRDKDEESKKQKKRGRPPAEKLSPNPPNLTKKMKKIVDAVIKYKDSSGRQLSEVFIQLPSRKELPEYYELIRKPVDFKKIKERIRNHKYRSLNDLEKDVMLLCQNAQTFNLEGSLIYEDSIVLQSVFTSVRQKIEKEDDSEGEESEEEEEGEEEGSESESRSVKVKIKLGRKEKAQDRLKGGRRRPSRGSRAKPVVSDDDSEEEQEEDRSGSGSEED
# Results are given in words; binding and its absence hold for the method and conditions named. In cells and extracts the contact can be indirect. Some entries that bind do so weakly or less than the wild type.
# B1: nuclear factor E2-related factor 2 (Nrf2) (protein, UniProt Q60795 1-597)
# chain: MMDLELPPPGLQSQQDMDLIDILWRQDIDLGVSREVFDFSQRQKDYELEKQKKLEKERQEQLQKEQEKAFFAQFQLDEETGEFLPIQPAQHIQTDTSGSASYSQVAHIPKQDALYFEDCMQLLAETFPFVDDHESLALDIPSHAESSVFTAPHQAQSLNSSLEAAMTDLSSIEQDMEQVWQELFSIPELQCLNTENKQLADTTAVPSPEATLTEMDSNYHFYSSISSLEKEVGNCGPHFLHGFEDSFSSILSTDDASQLTSLDSNPTLNTDFGDEFYSAFIAEPSDGGSMPSSAAISQSLSELLDGTIEGCDLSLCKAFNPKHAEGTMEFNDSDSGISLNTSPSRASPEHSVESSIYGDPPPGFSDSEMEELDSAPGSVKQNGPKAQPAHSPGDTVQPLSPAQGHSAPMRESQCENTTKKEVPVSPGHQKAPFTKDKHSSRLEAHLTRDELRAKALHIPFPVEKIINLPVDDFNEMMSKEQFNEAQLALIRDIRRRGKNKVAAQNCRKRKLENIVELEQDLGHLKDEREKLLREKGENDRNLHLLKRRLSTLYLEVFSMLRDEDGKPYSPSEYSLQQTRDGNVFLVPKSKKPDTKKN
# Target: Brahma-related gene 1 (Brg1) (mouse (endogenous in AML12)) (UniProt Q3TKT4)
# Assay: co-IP; 500 ug AML12 hepatocyte extract immunoprecipitated with 2 ug Brg1 antibody (IgG as negative control) and protein A/G PLUS-Agarose, PBS washes, blotted for Brg1 and Nrf2; cells untreated or pretreated with Nrf2 siRNA or Brg1-Adv, with or without hypoxia 12 h / reoxygenation 4 h
binder,measurement,value
B1,binding,binds
